In article PMC9018043:
Where a chain is given by its changes, count along the chain named. In names and notes the source's numbering stands. No constants are given. Whether binding was seen depends on the method and setting. Binding seen in cells or lysates may run through a third protein. Some entries that bind do so weakly or less than the wild type. Where a sequence is shown, tags or fusion partners need not be part of it.

T1: Flag-tagged α-tocopherol transfer protein (UniProt P49638)
T1 sequence: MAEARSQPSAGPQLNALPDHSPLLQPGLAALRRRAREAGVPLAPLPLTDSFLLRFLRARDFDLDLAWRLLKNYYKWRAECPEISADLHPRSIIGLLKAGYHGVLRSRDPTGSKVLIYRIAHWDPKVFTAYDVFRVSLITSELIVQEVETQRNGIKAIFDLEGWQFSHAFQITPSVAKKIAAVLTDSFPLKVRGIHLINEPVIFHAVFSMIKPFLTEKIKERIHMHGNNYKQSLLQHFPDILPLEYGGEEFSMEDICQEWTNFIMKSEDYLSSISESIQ

B1: Myc-tagged wild-type clavesin-1 (protein, UniProt Q8IUQ0-1 1-354)
chain: MGPVSLLPKYQKLNTWNGDLAKMTHLQAGLSPETIEKARLELNENPDVLHQDIQQVRDMIITRPDIGFLRTDDAFILRFLRARKFHQADAFRLLAQYFQYRQLNLDMFKNFKADDPGIKRALIDGFPGVLENRDHYGRKILLLFAANWDQSRNSFTDILRAILLSLEVLIEDPELQINGFILIIDWSNFSFKQASKLTPSILKLAIEGLQDSFPARFGGVHFVNQPWYIHALYTLIKPFLKDKTRKRIFLHGNNLNSLHQLIHPEFLPSEFGGTLPPYDMGTWARTLLGPDYSDENDYTHTSYNAMHVKHTSSNLERECSPKLMKRSQSVVEAGTLKHEEKGENENTQPLLALD
B2: Myc-tagged clavesin-1 p.H310Y (protein, UniProt Q8IUQ0-1 1-354)
chain: B1 chain with H310Y

Target: T1, Flag-tagged α-tocopherol transfer protein
Assay: co-IP; HEK293 cells cotransfected with Flag-tagged αTTP and Myc-tagged CLVS1 (wild-type or p.H310Y), harvested about 68 h after transfection; Flag immunoprecipitation kit (and a Myc-tag Co-IP kit), immunoblot; in the presence of excess α-tocopherol

binding	Binder
binds	B1
binds	B2
